Results taken from PubChem BioAssay AID504834 (National Center for Advancing Translational Sciences (NCATS), 2011).
Among all 320,000 compounds or so, about 22,000 (6.9%) were called active. Inconclusive means that the source gave no clear call. Such entries were picked first, then a sample of the others. Calls follow the shape of the dose curve; as a rule, active = well fitted inhibition curve with a large enough effect; inconclusive = small, poorly fitted or top-dose-only effect, or another doubt; inactive = no such curve, though single readings can be large or run the other way. A potency beside an inconclusive call is a rough fit, not a confirmed value.

test: Primary qHTS for delayed death inhibitors of the malarial parasite plastid, 96 hour incubation; settings: P. falciparum luciferase reporter growth; series mostly up to 28.7 µM; activity change, negative = inhibition: at the top concentration
How it was run: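 Readout is luminescence from an integrated firefly luciferase in P. falciparum. Red cells, 2% hematocrit and 0.05% parasitemia final, were cultured with compound through two parasite generations (96 hours) at 37 C, 5% CO2.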
% is scaled to controls: 0 for no effect and ±100 for the full control effect; potency is read from the fitted curve at half-maximal effect.

Row | Compound | Potency | activity change, negative = inhibition
1 | COc1cccc(N2CCN(S(=O)(=O)c3ccc4c(c3)N(C(C)=O)CCO4)CC2)c1 | inconclusive: 0.0828 µM [inhibitor, full curve, poor fit] | 
2 | Clc1ccc(CN2CCCCCC2)cc1Cl | active: 11.7 µM | 
3 | O=C(C[n+]1cccc(CNC(=O)c2ccc(OC(F)F)cc2)c1)Nc1cccc(C(F)(F)F)c1 | inconclusive: 0.465 µM [inhibitor, full curve, poor fit] | 
4 | Cc1ccc(C)c(NC(=O)CCc2ccc(C)o2)c1 | inconclusive: 4.15 µM [inhibitor, single point] | 
5 | COc1ccc(OC)c(NC(=O)CC2SC(=Nc3ccccc3)N(CCc3ccccn3)C2=O)c1 (stereo not drawn) | active: 4.65 µM | 
6 | COc1ccc(NC(C)=O)cc1S(=O)(=O)N(C)Cc1c(C)nn(-c2ccccc2)c1C | inconclusive: 18.5 µM [inhibitor, single point] | 
7 | COc1ccc(C)cc1NC(=O)c1nnn(CCc2ccccc2)c1N | inconclusive: 13.1 µM [inhibitor, partial curve, poor fit] | 
8 | CC(=O)c1cccc(NC(=S)NCCc2ccc(Cl)cc2)c1 | inconclusive: 9.28 µM [inhibitor, single point] | 
9 | Cc1ccc(O)c(C(=O)c2cc(C#N)c(=O)n(-c3nccs3)c2)c1 | inconclusive: 18.5 µM [inhibitor, single point] | 
10 | COCCOC(=O)C1=C(C)N=c2s/c(=C\c3cccs3)c(=O)n2C1c1cccs1 (stereo not drawn) | active: 8.28 µM | 
11 | O=C(Nc1ccc(S(=O)(=O)NCc2ccccc2)cc1)C1CCCCC1 | active: 11.7 µM | 
12 | Cc1c(Br)c([N+](=O)[O-])nn1CC(=O)NC1CCCCCC1 | active: 1.47 µM | 
13 | N#Cc1cc(C(=O)c2cc(Cl)ccc2O)cn(-c2ccccc2)c1=O | active: 1.85 µM | 
14 | Cc1snnc1C(=O)NC(=S)Nc1ccccc1 |  | inactive: 6.02%
15 | CCC(NC(=O)OCc1ccccc1)C(=O)Oc1ccc2ccc(=O)oc2c1 (stereo not drawn) |  | inactive: 0.712%
16 | COc1ccc(OCC(=O)Nc2ccc3c(c2)nc(CCN2CCCC2)n3C)cc1 | inconclusive: 1.65 µM [inhibitor, partial curve, poor fit] | 
17 | COc1ccc(CN2CC(=O)N3[C@H]4c5ccc(OC)cc5OC[C@@H]4[C@H](c4ccccc4)[C@]3(C)C2=O)cc1 | inconclusive: 3.29 µM [inhibitor, single point] | 
18 | CCOC(=O)C(Oc1ccc2c(-c3ccccc3)cc(=O)oc2c1C)c1ccccc1 (stereo not drawn) | inconclusive: 10.4 µM [inhibitor, single point] | 
19 | CC(=O)NC(Cc1ccccc1C)C(=O)NC1CCN(C(=O)NCc2ccccc2)CC1 (stereo not drawn) |  | inactive: -9.3%
20 | COc1ccc(C(=O)Nc2ccc(NC(=O)c3cccs3)c(OC)c2)cc1Cl |  | inactive: -9.32%
21 | CSCc1c(C(=O)N2CCCc3ccccc32)oc2ccccc12 |  | inactive: -52.7%
22 | C/C(N)=C(/C#N)C(=O)CSc1n[nH]c(-c2ccccc2Br)n1 | inconclusive: 1.31 µM [inhibitor, partial curve] | 
23 | CC(=O)c1c(C)[nH]c(C(=O)OCC(=O)NCc2cccs2)c1C |  | inactive: 112%
24 | CN1C(=O)SC(Nc2ccccc2C(=O)O)C1=O (stereo not drawn) | active: 1.31 µM | 
25 | CCOC(=O)CSc1nnc(NC(=O)CN2CCN(C=O)CC2)s1 |  | inactive: -2.9%

Row | Compound | Potency | activity change, negative = inhibition
26 | C=CCn1c(SCC(=O)Nc2ccccc2)nc2scc(-c3cccs3)c2c1=O |  | inactive: -11.4%
27 | CCCCCCC(=O)N(O)C1CC(=O)N(c2ccc(C)cc2)C1=O (stereo not drawn) | inconclusive: 11.7 µM [inhibitor, partial curve, poor fit] | 
28 | CC(OC(=O)CCN=C1NS(=O)(=O)c2ccccc21)C(=O)Nc1ccc(N(C)C)cc1 (stereo not drawn) | inconclusive: 18.5 µM [inhibitor, single point] | 
29 | CCc1cccc(C)c1NC(=O)C1CCN(C(=O)c2ccc([N+](=O)[O-])cc2)CC1 |  | inactive: -0.323%
30 | O=C(NC(=S)N1CCOCC1)c1cn(-c2ccccc2)nc1-c1ccc(F)cc1 | active: 11.7 µM | 
31 | Cc1nnc(SCC(=O)Nc2ccc3c(c2)COC3=O)n1-c1ccccc1 | inconclusive: 0.037 µM [inhibitor, full curve, poor fit] | 
32 | Cc1cccc(NC(=O)CSc2nc3nc(C)cc(C)n3n2)c1 | inconclusive: 1.04 µM [inhibitor, full curve, poor fit] | 
33 | CCC1(c2ccccc2)NC(=O)N(CC(=O)Nc2ccccc2N2CCCC2)C1=O (stereo not drawn) |  | inactive: -0.0338%
34 | Cc1nc(NC(=S)NC(=O)COc2ccccc2Cl)ccc1Br |  | inactive: -1.61%
35 | O=C(NC(=S)Nc1ccc(Br)cn1)c1cccnc1 | inconclusive: 18.5 µM [inhibitor, single point] | 
36 | O=S(=O)(c1cccs1)N1CCCc2ccccc21 | inconclusive: 7.38 µM [inhibitor, partial curve] | 
37 | COc1ccc(/C=N/NC(=O)c2cc3c(OC)ccc(OC)c3[nH]2)cc1O | inconclusive: 1.04 µM [inhibitor, full curve] | 
38 | CCCc1cc(C(=O)NCC(C)C)no1 |  | inactive: -26.3%
39 | O=c1[nH]c(O)c(C=Nc2ccccc2[N+](=O)[O-])c(=O)[nH]1 |  | inactive: 5.34%
40 | N#Cc1ccc(C(=O)NC23CC4CC(CC(C4)C2)C3)cc1 |  | inactive: 0.982%
41 | CCSC1(SCC)N=C(N)C2(C#N)C(c3ccccc3)NC(C)=C(C)C12C#N (stereo not drawn) |  | inactive: 9.06%
42 | CSc1ccc(C2C(C#N)=C(N)Oc3c2ccc(=O)c2c(C)oc(C)c32)cc1 (stereo not drawn) |  | inactive: -11.3%
43 | O=C(Cn1ncc2c3ccccc3n(Cc3cccc(Cl)c3)c2c1=O)NCC1CCCO1 (stereo not drawn) | inconclusive: 5.22 µM [inhibitor, partial curve] | 
44 | CCC(C)(C)NC(=O)Cn1c(-c2ccccc2)cc(C(C)=O)c1C | inconclusive: 14.7 µM [inhibitor, partial curve, poor fit] | 
45 | Cc1ccc(-c2ccc(C(=O)NCc3ccc(Cl)cc3)o2)c2ccccc12 | inconclusive: 18.5 µM [inhibitor, single point] | 
46 | NS(=O)(=O)c1cccc(NC(=O)c2ccc3nc[nH]c3c2)c1 | inconclusive: 4.15 µM [inhibitor, partial curve, poor fit] | 
47 | COc1ncnc2c1oc1nc(CC(C)C)c3c(c12)CC(C)(C)OC3 | inconclusive: 0.37 µM [inhibitor, full curve, poor fit] | 
48 | CC(C)CC(=O)NC(Nc1ccccc1F)C(Cl)(Cl)Cl (stereo not drawn) | active: 10.4 µM | 
49 | S=c1[nH]c(-c2ccccc2)cn1/N=C/c1cccs1 | active: 11.7 µM | 
50 | Cc1ccc(C(=O)N/N=C\c2cc(Br)c(Br)o2)cn1 | inconclusive: 4.15 µM [inhibitor, partial curve] | 

Row | Compound | Potency | activity change, negative = inhibition
51 | C=CCO/N=C/C1C(=O)CC(C)(C)CC1=O | inconclusive: 9.28 µM [inhibitor, single point] | 
52 | Cc1cc(C)nc(SCc2nnc(SCC(=O)N3CCOCC3)o2)n1 | active: 7.38 µM | 
53 | Cc1ccc(Cl)cc1N1CCN(S(=O)(=O)c2cnc[nH]2)CC1 |  | inactive: -2.33%
54 | Clc1ccc(SCc2cn3ccsc3n2)cc1 | active: 10.4 µM | 
55 | Cc1c(CN(C)Cc2cn(C)nc2-c2ccccc2F)[nH]c2ccccc12 | active: 3.7 µM | 
56 | COc1ccccc1CNC(=O)c1ccccc1C(=O)NC(CC(C)C)C(=O)NCc1ccccc1OC (stereo not drawn) | inconclusive: 18.5 µM [inhibitor, partial curve, poor fit] | 
57 | COc1ccc(OC)c(C2NC(=O)NC(C)=C2C(=O)OC2CCCCC2)c1 (stereo not drawn) | inconclusive: 11.7 µM [inhibitor, partial curve, poor fit] | 
58 | CCCCN(C(=O)c1ccccc1OCc1ccc(F)cc1)c1c(N)n(CC(C)C)c(=O)[nH]c1=O | inconclusive: 7.38 µM [inhibitor, partial curve, poor fit] | 
59 | Cc1cc(OCCCCOc2ccc(S(N)(=O)=O)c(C)c2)ccc1S(N)(=O)=O |  | inactive: 23.9%
60 | O=C(NC(Cc1ccccc1)C(=O)O)/C(=C/c1ccco1)NC(=O)c1cccc(Br)c1 (stereo not drawn) |  | inactive: 7.86%
61 | CN(C)CCC1c2ccc(Cl)cc2CCc2cccnc21 (stereo not drawn) (tested in a mixture with another compound) | inconclusive: 0.0026 µM [inhibitor, full curve, poor fit] | 
62 | O=C(NCC1CC1)c1ccc(Nc2nc3ccc(Br)cc3[nH]2)cc1 | active: 11.7 µM | 
63 | O=S(=O)(c1cccs1)N1CCN(CC(O)COc2cccc(Br)c2)CC1 (stereo not drawn) | inconclusive: 16.5 µM [inhibitor, single point] | 
64 | COc1ccccc1CN1CC(C(=O)NCc2cc(F)cc(C(F)(F)F)c2)CCC1=O (stereo not drawn) |  | inactive: 159%
65 | CCOc1cccc(CN2CCCC(C(=O)Nc3ccc(-c4ccn[nH]4)cc3)C2)c1O (stereo not drawn) | inconclusive: 9.28 µM [inhibitor, single point] | 
66 | c1ccc2[nH]c(NN=C3CCCCCC3)nc2c1 | inconclusive: 10.4 µM [inhibitor, partial curve] | 
67 | Cc1ccc(NC(=O)COC(=O)C2(C)CC2(Cl)Cl)cc1S(=O)(=O)N1CCOCC1 (stereo not drawn) | inconclusive: 18.5 µM [inhibitor, single point] | 
68 | Cc1ccc(NC(=O)C2CC(=O)N(CCc3ccccc3)C2)c(C)c1 (stereo not drawn) |  | inactive: -5.11%
69 | CC(CC(=O)N(C)C1CCCCC1)S(=O)(=O)c1ccc2c(c1)NC(=O)CO2 (stereo not drawn) | active: 7.38 µM | 
70 | CC(NC(=O)c1cccc(S(=O)(=O)N2CCCCCC2)c1)c1ccccc1 (stereo not drawn) | inconclusive: 11.7 µM [inhibitor, partial curve] | 
71 | Cc1ccc(N(CCC(=O)Nc2nnc(C3CC3)s2)S(=O)(=O)c2ccccc2)cc1 | inconclusive: 18.5 µM [inhibitor, single point] | 
72 | Cc1cccc(NC(=O)c2cnc3n(c2=O)CCS3)c1 |  | inactive: 0.797%
73 | COc1ccc(C(=O)NC(=S)Nc2ccc(N3CCOCC3)c(Cl)c2)cc1[N+](=O)[O-] | inconclusive: 18.5 µM [inhibitor, single point] | 
